# Reference: patent US7834025B2, “Substituted indolyl-alkyl-amino-derivatives as inhibitors of histone deacetylase” (Janssen Pharmaceutica N.V., priority 2006, dated 2010)
# Some of these results come from one statement about several compounds together.
# Tested on: p21 promoter (A2780 cells transfected with pGL3-basic-ZsGreen-1300)
# Assay: p21 induction capacity, cellular method (ZsGreen reporter)
# Format: cell-based, human
# Conditions: 100 nM, 24 hours, A2780 reporter clone
row,Structure (SMILES),p21 induction
1,CC(NCC1CCN(c2ncc(C(=O)NO)cn2)CC1)c1cn(C)c2ccccc12 (stereo not drawn) [Compound 1],significant induction (Percentage induction higher than 130% was defined as significant induction)
2,Cn1cc(C2CCCN(CC3CCN(c4ncc(C(=O)NO)cn4)CC3)C2)c2ccccc21 (stereo not drawn) [Compound 3],significant induction (Percentage induction higher than 130% was defined as significant induction)
3,Cn1cc(C2CCN(CC3CCN(c4ncc(C(=O)NO)cn4)CC3)C2)c2ccccc21 (stereo not drawn) [Compound 2],significant induction (Percentage induction higher than 130% was defined as significant induction)
